# Data as given in PubChem BioAssay AID1671190 (National Center for Advancing Translational Sciences (NCATS), 2021).
# Amino acid sequences for entries named in this document (tags omitted). A change or cut given only in a name is not applied to a line headed by its entry.
# UniProt P18054: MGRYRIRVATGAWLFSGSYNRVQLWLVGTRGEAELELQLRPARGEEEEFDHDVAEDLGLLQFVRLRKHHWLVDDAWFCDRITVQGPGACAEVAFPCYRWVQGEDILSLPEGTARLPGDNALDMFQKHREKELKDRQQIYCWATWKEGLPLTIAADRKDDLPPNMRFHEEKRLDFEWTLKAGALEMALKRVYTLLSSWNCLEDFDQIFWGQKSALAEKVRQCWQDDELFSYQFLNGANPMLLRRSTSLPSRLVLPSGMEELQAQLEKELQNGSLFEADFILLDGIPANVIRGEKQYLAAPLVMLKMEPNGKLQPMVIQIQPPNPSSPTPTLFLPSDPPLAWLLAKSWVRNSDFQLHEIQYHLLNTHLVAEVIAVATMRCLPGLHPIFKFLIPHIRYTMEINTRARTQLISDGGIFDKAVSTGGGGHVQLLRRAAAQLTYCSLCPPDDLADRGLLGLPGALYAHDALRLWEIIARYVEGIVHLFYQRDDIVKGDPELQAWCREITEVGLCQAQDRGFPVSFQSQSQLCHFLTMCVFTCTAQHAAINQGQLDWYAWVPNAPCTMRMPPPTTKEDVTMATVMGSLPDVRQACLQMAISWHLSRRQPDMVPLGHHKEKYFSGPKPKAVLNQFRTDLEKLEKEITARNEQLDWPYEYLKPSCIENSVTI
# About 6,100 (1.1%) of roughly 580,000 compounds were called active. This list was built around the results that the source calls inconclusive (neither active nor inactive); the mix of calls is not that of the screen. Calls come from the whole dose curve; as a rule, active = well fitted inhibition curve with a large enough effect; inconclusive = small, poorly fitted or top-dose-only effect, or another doubt; inactive = no such curve, though single readings can be large or run the other way. Where the call is inconclusive, the potency comes from a doubtful curve fit.
# Target: Polyunsaturated fatty acid lipoxygenase ALOX12 (Homo sapiens) (UniProt P18054)
# Experiment: Primary qHTS assay for inhibitors of human arachidonate 12S-lipoxygenase (ALOX12): Round 2
# Details: purified 12hLO, xylenol orange hydroperoxide absorbance; series mostly up to 108 µM
# Summary of the method: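 Purified human 12hLO (150 nM final) in 25 mM Hepes, 0.01% Triton X-100, pH 7.0 was preincubated 15 min at room temperature with compound. Then 40 uM arachidonic acid was added, 30 min. Hydroperoxide was read by Fe-XO absorbance ratio 573/405 nm.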
# Potency is the fitted concentration of half-maximal effect.
row,SMILES,Potency
1,COC(=O)N1CCC[C@@]2(CCN(c3ccccc3)C2)C1,"inconclusive: 25.1 µM [inhibitor, single point]"
2,CCN(CC)S(=O)(=O)c1cc([N+](=O)[O-])ccc1NNC(=O)Nc1ccc(F)cc1,"inconclusive: 44.7 µM [inhibitor, partial curve, poor fit]"
3,O=S(=O)(c1cccc(Cl)c1)c1nnn2c1nc(NCc1ccc3c(c1)OCO3)c1sccc12,"inconclusive: 141 µM [inhibitor, single point]"
4,O=C(O)/C(=C\c1ccco1)NC(=O)c1cccc2ccccc12,"inconclusive: 11.2 µM [inhibitor, full curve]"
5,CC[C@]12c3[nH]c4cc(CCC(=O)N(C)C)ccc4c3CCN1C(=O)[C@@H](CC(=O)NCc1ccco1)C[C@@H]2C(=O)N1CCN(C(=O)C2CC2)CC1,"inconclusive: 56.2 µM [inhibitor, single point]"
6,CSc1nc(=O)n2cc(C)ccc2n1,inactive
7,O=C(O)c1ccc(/C=C/C(=O)c2ccccc2Cl)cc1,"inconclusive: 12.6 µM [inhibitor, full curve]"
8,COc1ccc(NC(=O)O[C@@H]2CO[C@H]3[C@@H]2OC[C@@H]3NC(=S)Nc2ccc(Cl)cc2)cc1,"inconclusive: 79.4 µM [inhibitor, single point]"
9,Cc1ccc(CC2CC(=O)N(c3nc(C)cc(C)n3)C2=O)cc1 (configuration not stated),"inconclusive: 31.6 µM [inhibitor, single point]"
10,COc1ccc(C(=O)N2CCN(S(=O)(=O)c3ccc(Br)cc3)CC2)cc1,"inconclusive: 70.8 µM [inhibitor, partial curve, poor fit]"
11,[O-]/[N+](=C\c1ccccc1)c1ccccc1,"inconclusive: 44.7 µM [inhibitor, partial curve, poor fit]"
12,Cc1ccc(C(=O)CSc2nnc(C)s2)cc1,inactive
13,Cc1cccc(Cn2c(-c3ccccc3)nc3ccccc32)c1,inactive
14,N#Cc1ccc(C(C(=O)NC2CCCCC2)n2c(=O)c(-c3cc4ccccc4[nH]3)nc3ccccc32)cc1 (configuration not stated),inactive
15,O=C(CC1N=C2c3ccccc3N=C(SCc3ccc(F)cc3)N2C1=O)NCCc1ccccc1 (configuration not stated),"inconclusive: 63.1 µM [inhibitor, partial curve, poor fit]"
16,C#CCOCCOCCOCCNc1nc(N2CCN(C(=O)[C@H](CCCCN)n3cc(CCCC)nn3)CC2)nc(N2CCN(C(=O)[C@H](CCCCN)n3cc(CCC(=O)O)nn3)CC2)n1,"inconclusive: 44.7 µM [inhibitor, partial curve, poor fit]"
17,COc1cccc(N2C(=O)NC(=NC3CCCCC3)C23CCN(C(=O)OCc2ccccc2)C3)c1 (configuration not stated),"inconclusive: 31.6 µM [inhibitor, partial curve, poor fit]"
18,CC1Sc2ccc(C(=O)OCc3ccccc3Cl)cc2NC1=O (configuration not stated),"inconclusive: 5.62 µM [inhibitor, full curve, poor fit]"
19,CCc1nc2c(OCc3ccccc3)cccn2c1N(C)C(=O)C(C)C,inactive
20,COc1ccc(O)c(C(=O)c2cc(SCC(=O)O)c3nc4sc5c(c4c(=O)n3c2)CCCC5)c1,active: 35.5 µM
21,c1ccc(OCc2cc(CC3(NCc4cccc5c4OCO5)COC3)no2)cc1,inactive

row,SMILES,Potency
1,O=C(c1csc2ccccc12)N1CCN(c2ccccn2)CC1,"inconclusive: 112 µM [inhibitor, single point]"
2,COc1ccc2sc(-c3ccccc3OC)c(-c3ccc(OCCN(C)C)cc3)c2c1,"inconclusive: 56.2 µM [inhibitor, partial curve, poor fit]"
3,CC(OC(=O)C1CCN(S(=O)(=O)c2ccc(Cl)cc2)CC1)C(=O)NC1CCCCC1C (configuration not stated),"inconclusive: 44.7 µM [inhibitor, partial curve, poor fit]"
4,O=C(/C=C/c1ccccc1)c1cc(Br)ccc(=O)c1O,"inconclusive: 44.7 µM [inhibitor, partial curve, poor fit]"
5,Cc1cccc(C)c1NC(=O)C(c1ccccc1F)n1c(=O)c(-c2cc3ccccc3[nH]2)nc2ccccc21 (configuration not stated),"inconclusive: 89.1 µM [inhibitor, single point]"
6,CC1(C(=O)NS(=O)(=O)c2cccc(OC(F)F)c2)CCN1C(=O)Cc1ccsc1 (configuration not stated),"inconclusive: 89.1 µM [inhibitor, single point]"
7,CN1CCN(C[C@@H]2CN(C(=O)CCCc3cccs3)C[C@@H]2CO)CC1,inactive
8,CC1CC2(CC(C)(C(=O)CSc3nc4ccccc4s3)OC2=O)C(=O)O1 (configuration not stated),"inconclusive: 0.398 µM [inhibitor, full curve, poor fit]"
9,COc1ccc(-n2c(=S)[nH]c3cc(C(=O)N4CCN(c5ccccc5)CC4)ccc3c2=O)cc1,inactive
10,CC(=O)Nc1ccc(-c2sc(Nc3cccc4ccccc34)n[n+]2-c2ccccc2)cc1,"inconclusive: 35.5 µM [inhibitor, partial curve, poor fit]"
11,CCN1CCN(c2csc3ccc(Br)cc3c2=O)CC1,"inconclusive: 56.2 µM [inhibitor, partial curve, poor fit]"
12,Cc1ccc(C)c(-c2nn(-c3cc(N4CCN(CCO)CC4)ccc3[N+](=O)[O-])c(=O)c3ccccc23)c1,"inconclusive: 112 µM [inhibitor, single point]"
13,Cc1nnc(NC(=O)c2ccccc2C(=O)O)s1,"inconclusive: 8.91 µM [inhibitor, full curve, poor fit]"
14,COc1cccc(Nc2nc(C(N)c3ccccc3)cs2)n1 (configuration not stated),"inconclusive: 79.4 µM [inhibitor, single point]"
15,CCC(C)NCCCOc1cc(Cl)ccc1Cl (configuration not stated),"inconclusive: 2 µM [inhibitor, full curve, poor fit]"
16,CCOC(=O)C1=C(COC(=O)CSc2ccc(Br)cc2)NC(=O)NC1C (configuration not stated),"inconclusive: 63.1 µM [inhibitor, partial curve, poor fit]"
17,C[C@H](CO)N1C[C@H](C)[C@@H](CN(C)Cc2ccc(-c3ccccc3)cc2)Oc2c(NS(=O)(=O)c3ccccc3)cccc2C1=O,inactive
18,COc1cccc(CCn2ccnc2-c2cc3n(n2)CCCNC3)c1OC,"inconclusive: 3.55 µM [inhibitor, full curve]"
19,CN(C)c1ccc(Nc2cccc3nccnc23)cc1,"inconclusive: 20 µM [inhibitor, partial curve, poor fit]"
20,O=c1c2ccccc2nc(N/N=C/c2c(O)ccc3ccccc23)n1O,"inconclusive: 50.1 µM [inhibitor, partial curve, poor fit]"
21,CN(CC(=O)Nc1cccc(F)c1)C(=O)c1cccc(-n2cccc2)c1,"inconclusive: 50.1 µM [inhibitor, partial curve, poor fit]"

# Taken from the entries so far for reference:
row,SMILES,Potency
12,Cc1ccc(C(=O)CSc2nnc(C)s2)cc1,inactive
13,Cc1cccc(Cn2c(-c3ccccc3)nc3ccccc32)c1,inactive
14,N#Cc1ccc(C(C(=O)NC2CCCCC2)n2c(=O)c(-c3cc4ccccc4[nH]3)nc3ccccc32)cc1 (configuration not stated),inactive
15,O=C(CC1N=C2c3ccccc3N=C(SCc3ccc(F)cc3)N2C1=O)NCCc1ccccc1 (configuration not stated),"inconclusive: 63.1 µM [inhibitor, partial curve, poor fit]"
16,C#CCOCCOCCOCCNc1nc(N2CCN(C(=O)[C@H](CCCCN)n3cc(CCCC)nn3)CC2)nc(N2CCN(C(=O)[C@H](CCCCN)n3cc(CCC(=O)O)nn3)CC2)n1,"inconclusive: 44.7 µM [inhibitor, partial curve, poor fit]"
17,COc1cccc(N2C(=O)NC(=NC3CCCCC3)C23CCN(C(=O)OCc2ccccc2)C3)c1 (configuration not stated),"inconclusive: 31.6 µM [inhibitor, partial curve, poor fit]"
18,CC1Sc2ccc(C(=O)OCc3ccccc3Cl)cc2NC1=O (configuration not stated),"inconclusive: 5.62 µM [inhibitor, full curve, poor fit]"
19,CCc1nc2c(OCc3ccccc3)cccn2c1N(C)C(=O)C(C)C,inactive
20,COc1ccc(O)c(C(=O)c2cc(SCC(=O)O)c3nc4sc5c(c4c(=O)n3c2)CCCC5)c1,active: 35.5 µM
21,c1ccc(OCc2cc(CC3(NCc4cccc5c4OCO5)COC3)no2)cc1,inactive
1,O=C(c1csc2ccccc12)N1CCN(c2ccccn2)CC1,"inconclusive: 112 µM [inhibitor, single point]"
2,COc1ccc2sc(-c3ccccc3OC)c(-c3ccc(OCCN(C)C)cc3)c2c1,"inconclusive: 56.2 µM [inhibitor, partial curve, poor fit]"

# The list goes on.

row,SMILES,Potency
1,CC(Sc1nc(-c2ccccc2)cc(C(F)(F)F)n1)C(=O)Nc1sc2c(c1C(N)=O)CCC2 (configuration not stated),inactive
2,Cc1cc([N+](=O)[O-])c(=O)[nH]c1C,"inconclusive: 15.8 µM [inhibitor, full curve]"
3,COCc1cc(C)nc2sc3c(c12)NCN(c1cccc(OC)c1)C3=O,"inconclusive: 50.1 µM [inhibitor, partial curve, poor fit]"
4,CC(=O)N1CCN(C(=O)c2cccc3c(=O)c(C)c(-c4ccccc4)oc23)CC1,inactive
5,c1ccc(CCNc2ncnc3c2cnn3-c2ccccc2)cc1,"inconclusive: 44.7 µM [inhibitor, partial curve, poor fit]"
6,COc1ccc2c(/C=N/NS(=O)(=O)c3ccc(C)cc3)c[nH]c2c1,"inconclusive: 39.8 µM [inhibitor, single point]"
7,O=C(O)c1cc(=O)c2c(Cl)cc(Cl)cc2[nH]1,"inconclusive: 10 µM [inhibitor, full curve, poor fit]"
8,CCCc1nnc2sc(-c3ccc(CNC(=O)c4ccccc4C)cc3)nn12,inactive
9,O=C(COc1ccc(F)cc1Cl)Nc1cccc(S(=O)(=O)N2CCCCCC2)c1,inactive
10,O=C(O)/C=C/c1cc(Cl)ccc1OCc1ccccc1,inactive
11,COC(=O)C1=C(C)N(Cc2ccccc2C(F)(F)F)C(=NCc2ccc(OC)cc2)NC1c1ccc(C(F)(F)F)cc1 (configuration not stated),"inconclusive: 79.4 µM [inhibitor, partial curve, poor fit]"
12,CCCN(CCC)C(=O)c1ccc2c(=O)n(Cc3ccco3)c(=S)[nH]c2c1,"inconclusive: 70.8 µM [inhibitor, partial curve, poor fit]"
13,CCC(=O)N[C@@H]1Cc2ccccc2[C@@H](c2ccccc2)C1,inactive
14,CCN(Cc1ccccc1)c1sc(S(C)(=O)=O)nc1S(=O)(=O)c1ccc(C)cc1,"inconclusive: 39.8 µM [inhibitor, partial curve, poor fit]"
15,Cc1ccc(-c2nn(C(C)(C)C)c3ncnc(NS(=O)(=O)c4ccc([N+](=O)[O-])cc4)c23)cc1,inactive
16,COC(=O)c1ccc(C2NC(=S)N(c3ccccc3)C(C)=C2C(=O)Nc2ccccc2OC)cc1 (configuration not stated),"inconclusive: 56.2 µM [inhibitor, partial curve, poor fit]"
17,O=C1c2c(nc(COc3cc(F)cc(F)c3)n2Cc2ccccc2)NCCN1Cc1ccccc1F,inactive
18,COc1ccccc1Oc1ccc(S(=O)(=O)N2CCCCC2)cc1NC(=O)CCNC(C)=O,"inconclusive: 79.4 µM [inhibitor, single point]"
19,CC1C(=O)Nc2ccccc2N1C(=O)c1ccc(F)cc1F (configuration not stated),"inconclusive: 7.08 µM [inhibitor, full curve, poor fit]"
20,O=C1C(c2ccc(F)cc2)N(CCc2ccc(Cl)cc2)C(=O)CN1C1CCCCC1 (configuration not stated),"inconclusive: 0.282 µM [inhibitor, full curve, poor fit]"
